Values from PubChem BioAssay AID1508597 (Cure First, 2020)
Shown is an unselected part of the about 2,100 reagents, in one setting of the screen. 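Calls flag viability under 80% in either arm, not effects specific to rucaparib; the reference for percent is not stated.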 Not given: the 100% reference.

Screen: 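Genes whose silencing sensitises or protects ovarian cancer cells against rucaparib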 (primary screen)
System: human ovarian carcinoma lines grown from tumours: OCI-P5x (papillary serous) and OCI-C5x (clear cell)
Reagent: siRNA pool against human genes, 1.25 pmol siRNA per well
Time to read-out: 72 h or 96 h, depending on the cell culture
Conditions: rucaparib 20 µM (about IC30) or vehicle, present until read-out
Rucaparib or vehicle: Rucaparib
Cell line: OCI-P5x (serous)
Detection: 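Luminescent ATP-based viability assay read 72 or 96 h after transfection, depending on culture, given as normalised percent viability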
Reading the numbers: viability, normalised: higher = more viable cells remaining
Rule for the call: 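a well counts as a hit if its normalised viability is under 80 percent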
Meaning of the calls: active = viability under 80%; inactive = viability 80% or more

Gene | PubChem SID | technical replicate | viability, normalised (%) | activity call
PRDM4 (GeneID 11108) | SID405527188 | 1 | 30.9 | active
PRDM4 (GeneID 11108) | SID405527188 | 2 | 51.5 | active
PRDM4 (GeneID 11108) | SID405527188 | 3 | 48.7 | active
COPRS (GeneID 55352) | SID405528059 | 1 | 78.5 | active
COPRS (GeneID 55352) | SID405528059 | 2 | 81.8 | inactive
COPRS (GeneID 55352) | SID405528059 | 3 | 59.4 | active
ENPP3 (GeneID 5169) | SID405526668 | 1 | 86.2 | inactive
ENPP3 (GeneID 5169) | SID405526668 | 2 | 55.8 | active
ENPP3 (GeneID 5169) | SID405526668 | 3 | 79 | active
LPA (GeneID 4018) | SID405526958 | 1 | 61 | active
LPA (GeneID 4018) | SID405526958 | 2 | 58.8 | active
LPA (GeneID 4018) | SID405526958 | 3 | 73.7 | active
CENPO (GeneID 79172) | SID405526482 | 1 | 73.2 | active
CENPO (GeneID 79172) | SID405526482 | 2 | 59.6 | active
CENPO (GeneID 79172) | SID405526482 | 3 | 62.2 | active
SMARCD3 (GeneID 6604) | SID405527336 | 1 | 54.5 | active
SMARCD3 (GeneID 6604) | SID405527336 | 2 | 51.7 | active
SMARCD3 (GeneID 6604) | SID405527336 | 3 | 52.1 | active
P2RY2 (GeneID 5029) | SID405527100 | 1 | 55.1 | active
P2RY2 (GeneID 5029) | SID405527100 | 2 | 48.2 | active
P2RY2 (GeneID 5029) | SID405527100 | 3 | 51.9 | active
BLK (GeneID 640) | SID405528548 | 1 | 74.4 | active
BLK (GeneID 640) | SID405528548 | 2 | 61 | active
BLK (GeneID 640) | SID405528548 | 3 | 71.7 | active
